Data from US10017767B2, “Targets in multiple myeloma and other disorders” (FONDAZIONE CENTRO SAN RAFFAELE, priority 2012, dated 2018).
For at least one compound, name, drawing or mass did not settle the structure.

Tests used:
Format in all cases: cell-based
RL = experiment: MTT / Annexin V-PI, RL; conditions: no nuclear ABL1
[1] = system: leukemia and lymphoma cell lines; experiment: MTT growth inhibition and Annexin V-PI apoptosis in a leukemia and lymphoma cell line panel; conditions: cell lines where the DNA damage-ABL1-YAP1 axis was activated
HL-60 = experiment: MTT / Annexin V-PI, HL-60; conditions: HL-60, YAP1 basal expression

## CCOc1cc2ncc(C#N)c(Nc3ccc(OCc4ccccn4)c(Cl)c3)c2cc1NC(=O)/C=C/CN(C)C [HKI-272]
RL
  response to treatment: did not respond to the treatment
[1]
  cellular proliferation and survival: profoundly reduced
HL-60
  response to treatment: did not respond to the treatment
